According to article PMC11739200:
Results are given in words; binding and its absence hold for the method and conditions named. In cells and extracts the contact can be indirect. A result given as binding can be weak or reduced; the word gives no strength. Where a sequence is shown, tags or fusion partners need not be part of it.

Amino acid sequences for entries named in this document (tags omitted). A change or cut given only in a name is not applied to a line headed by its entry. Residues count along the entry.
UniProt P01106: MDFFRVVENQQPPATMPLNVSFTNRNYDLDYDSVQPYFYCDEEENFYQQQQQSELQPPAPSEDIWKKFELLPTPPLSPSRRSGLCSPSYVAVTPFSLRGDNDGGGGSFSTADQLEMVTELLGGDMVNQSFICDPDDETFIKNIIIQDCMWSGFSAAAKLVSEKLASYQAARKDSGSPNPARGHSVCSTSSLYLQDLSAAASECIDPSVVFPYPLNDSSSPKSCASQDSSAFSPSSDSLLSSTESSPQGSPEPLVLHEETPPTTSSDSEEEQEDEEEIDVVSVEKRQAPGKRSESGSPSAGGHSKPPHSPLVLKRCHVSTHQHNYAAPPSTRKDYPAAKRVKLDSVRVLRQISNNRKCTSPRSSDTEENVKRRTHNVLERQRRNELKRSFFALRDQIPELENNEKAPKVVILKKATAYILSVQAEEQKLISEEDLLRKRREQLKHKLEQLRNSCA
UniProt P18888: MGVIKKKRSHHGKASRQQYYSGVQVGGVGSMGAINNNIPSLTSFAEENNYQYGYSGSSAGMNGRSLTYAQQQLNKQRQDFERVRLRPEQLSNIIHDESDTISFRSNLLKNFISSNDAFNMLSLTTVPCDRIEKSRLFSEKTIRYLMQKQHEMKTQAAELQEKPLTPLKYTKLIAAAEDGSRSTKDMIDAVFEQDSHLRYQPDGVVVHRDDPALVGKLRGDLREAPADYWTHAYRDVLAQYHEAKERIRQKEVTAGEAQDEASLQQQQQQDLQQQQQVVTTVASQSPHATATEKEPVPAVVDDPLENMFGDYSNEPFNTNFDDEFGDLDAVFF
UniProt P32597, residues 1-300: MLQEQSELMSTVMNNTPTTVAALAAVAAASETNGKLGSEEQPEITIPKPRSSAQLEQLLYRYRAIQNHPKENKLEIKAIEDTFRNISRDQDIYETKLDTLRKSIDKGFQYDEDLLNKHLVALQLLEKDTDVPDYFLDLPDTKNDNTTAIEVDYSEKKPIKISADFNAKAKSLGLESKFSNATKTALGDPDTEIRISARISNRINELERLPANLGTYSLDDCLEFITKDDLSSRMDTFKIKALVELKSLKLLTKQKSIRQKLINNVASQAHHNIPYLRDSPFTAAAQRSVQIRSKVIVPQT
UniProt P22082, residues 1-307: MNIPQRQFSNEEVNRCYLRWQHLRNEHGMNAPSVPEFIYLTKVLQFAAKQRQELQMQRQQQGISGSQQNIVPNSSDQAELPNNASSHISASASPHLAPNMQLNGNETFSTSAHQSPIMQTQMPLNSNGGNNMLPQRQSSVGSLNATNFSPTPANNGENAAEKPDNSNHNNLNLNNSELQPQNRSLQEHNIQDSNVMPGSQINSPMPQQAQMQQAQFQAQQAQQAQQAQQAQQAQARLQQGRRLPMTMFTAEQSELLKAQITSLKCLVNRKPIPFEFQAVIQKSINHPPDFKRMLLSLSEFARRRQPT
UniProt P53115, residues 1-670: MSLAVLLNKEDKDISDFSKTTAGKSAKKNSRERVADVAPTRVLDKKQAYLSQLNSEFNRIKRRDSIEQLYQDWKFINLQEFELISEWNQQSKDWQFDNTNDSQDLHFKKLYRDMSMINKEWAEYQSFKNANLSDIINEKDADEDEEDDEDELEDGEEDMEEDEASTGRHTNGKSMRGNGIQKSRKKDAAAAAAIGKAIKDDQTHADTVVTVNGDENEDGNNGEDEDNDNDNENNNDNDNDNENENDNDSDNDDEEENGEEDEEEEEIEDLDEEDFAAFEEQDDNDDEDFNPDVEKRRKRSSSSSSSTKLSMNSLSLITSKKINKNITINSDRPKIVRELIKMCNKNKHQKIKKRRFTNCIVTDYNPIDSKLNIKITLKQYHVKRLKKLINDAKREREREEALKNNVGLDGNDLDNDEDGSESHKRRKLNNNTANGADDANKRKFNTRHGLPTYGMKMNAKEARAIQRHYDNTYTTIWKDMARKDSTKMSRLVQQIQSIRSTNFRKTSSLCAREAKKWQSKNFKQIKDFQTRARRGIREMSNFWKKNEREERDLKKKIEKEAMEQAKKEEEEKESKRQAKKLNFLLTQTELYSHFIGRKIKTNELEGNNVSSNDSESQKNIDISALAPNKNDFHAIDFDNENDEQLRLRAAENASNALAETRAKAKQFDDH
UniProt P18480, residues 1-334: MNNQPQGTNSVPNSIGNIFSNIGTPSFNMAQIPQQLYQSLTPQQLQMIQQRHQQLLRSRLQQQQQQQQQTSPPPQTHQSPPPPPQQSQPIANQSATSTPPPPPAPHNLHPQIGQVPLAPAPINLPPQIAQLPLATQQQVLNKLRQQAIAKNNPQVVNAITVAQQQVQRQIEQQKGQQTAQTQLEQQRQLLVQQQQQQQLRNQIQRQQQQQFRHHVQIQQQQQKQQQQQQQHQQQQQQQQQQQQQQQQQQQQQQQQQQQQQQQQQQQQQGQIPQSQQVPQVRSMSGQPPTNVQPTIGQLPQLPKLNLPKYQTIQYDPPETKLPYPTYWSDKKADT
UniProt Q03761: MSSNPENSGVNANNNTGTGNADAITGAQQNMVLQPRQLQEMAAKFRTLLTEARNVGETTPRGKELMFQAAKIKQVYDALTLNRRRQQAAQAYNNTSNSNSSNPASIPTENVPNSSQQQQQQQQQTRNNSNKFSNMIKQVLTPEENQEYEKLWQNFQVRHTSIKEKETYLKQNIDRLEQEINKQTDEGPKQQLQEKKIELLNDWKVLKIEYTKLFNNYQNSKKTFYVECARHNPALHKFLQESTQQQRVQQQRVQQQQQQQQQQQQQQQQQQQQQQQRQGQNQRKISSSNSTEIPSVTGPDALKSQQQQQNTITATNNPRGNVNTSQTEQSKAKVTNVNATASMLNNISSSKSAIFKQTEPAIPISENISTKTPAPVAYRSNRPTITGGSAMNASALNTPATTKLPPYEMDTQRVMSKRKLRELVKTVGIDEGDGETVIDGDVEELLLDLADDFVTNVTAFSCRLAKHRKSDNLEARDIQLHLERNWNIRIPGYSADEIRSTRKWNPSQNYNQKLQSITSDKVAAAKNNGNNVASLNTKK

Legend:
[1] = biological target: GST-Myc TAD1 (aa 1-41) (human) (UniProt P01106); experiment: pull-down; GST-TAD fusions immobilised on GSH sepharose, incubated with total protein extracts of yeast transformants containing HA fusions of coactivators; buffer SA-125 (20 mM HEPES pH 7.6, 1 mM DTT, 1 mM EDTA, 125 mM K-acetate, 20% glycerol, 1% NP-40); washed with PBS, eluted with free GSH; blot with anti-HA-peroxidase conjugate; only the target purified
[2] = biological target: GST-Myc TAD2 (aa 91-140) (human) (UniProt P01106); experiment: as above

## Snf6 (full-length), HA fusion (from UniProt P18888 1-332)
[1]
  binding: binds
[2]
  binding: binds

## Sth1 (aa 1-300), HA fusion (from UniProt P32597 1-300) (domain or fragment)
[1]
  binding: binds
[2]
  binding: binds

## Swi2 (aa 1-307), HA fusion (from UniProt P22082 1-307) (domain or fragment)
[1]
  binding: binds
[2]
  binding: binds

## Ino80 (aa 1-670), HA fusion (from UniProt P53115 1-670) (domain or fragment)
[1]
  binding: binds
[2]
  binding: binds

## Snf5 (aa 1-334), HA fusion (from UniProt P18480 1-334) (domain or fragment)
[1]
  binding: binds
[2]
  binding: binds

## Taf12, HA fusion (from UniProt Q03761 1-539)
[1]
  binding: binds
[2]
  binding: binds

B1: Taf10, HA fusion (protein, UniProt Q12030 1-206)
chain: MDFEEDYDAEFDDNQEGQLETPFPSVAGADDGDNDNDDSVAENMKKKQKREAVVDDGSENAFGIPEFTRKDKTLEEILEMMDSTPPIIPDAVIDYYLTKNGFNVADVRVKRLLALATQKFVSDIAKDAYEYSRIRSSVAVSNANNSQARARQLLQGQQQPGVQQISQQQHQQNEKTTASKVVLTVNDLSSAVAEYGLNIGRPDFYR
[1]
  binding: binds
[2]
  binding: binds

B2: Toa1, HA fusion (protein, UniProt P32773 1-286)
chain: MSNAEASRVYEIIVESVVNEVREDFENAGIDEQTLQDLKNIWQKKLTETKVTTFSWDNQFNEGNINGVQNDLNFNLATPGVNSSEFNIKEENTGNEGLILPNINSNNNIPHSGETNINTNTVEATNNSGATLNTNTSGNTNADVTSQPKIEVKPEIELTINNANITTVENIDDESEKKDDEEKEEDVEKTRKEKEQIEQVKLQAKKEKRSALLDTDEVGSELDDSDDDYLISEGEEDGPDENLMLCLYDKVTRTKARWKCSLKDGVVTINRNDYTFQKAQVEAEWV
[1]
  binding: binds
[2]
  binding: binds

B3: Taf1 (aa 1-250), HA fusion (domain or fragment, UniProt P46677 1-250)
chain: MVKQQGSGKTNLANEDEAYEAIFGGEFGSLEIGSYIGGDEGANSKDYTEHLPDAVDFEDEDELADDDDDLPEESDANLHPAMMTMGAYDDVNENGAVLGIDSNSLNMQLPEINGDLSQQFILEDDGGTPATSNALFMGMDANEIHLATETGVLDGSGANEIGHSQLSIGGVNGNDMSINGGFIMEPDMSDGKHKKATKLDLINHEKYLLKKYFPDFEKGKILKWNKLIYRRSVPYHWHSEISRVKKPFMP
[1]
  binding: binds
[2]
  binding: binds

B4: Swi1 (aa 329-657), HA fusion (domain or fragment, UniProt P09547 329-657)
chain: RAAMFAALQQKQQQRFQALQQQQQQQQNQQQQNQQPQQQQQQQQNPKFLQSQRQQQQRSILQSLNPALQEKISTELNNKQYELFMKSLIENCKKRNMPLQSIPEIGNRKINLFYLYMLVQKFGGADQVTRTQQWSMVAQRLQISDYQQLESIYFRILLPYERHMISQEGIKETQAKRIFLQQFLQELLKKVQQQQQAAALANANNNINSASSAPTPAAPGASVPATAAPGTEAGIVPVSANTPKSLNSNININVNNNNIGQQQVKKPRKQRVKKKTKKELELERKEREDFQKRQQKLLEDQQRQQKLLLETKLRQQYEIELKKLPKVYK
[1]
  binding: binds
[2]
  binding: binds

B5: Taf4, HA fusion (protein, UniProt P50105 1-388)
chain: MANSPKKPSDGTGVSASDTPKYQHTVPETKPAFNLSPGKASELSHSLPSPSQIKSTAHVSSTHNDAAGNTDDSVLPKNVSPTTNLRVESNGDTNNMFSSPAGLALPKKDDKKKNKGTSKADSKDGKASNSSGQNAQQQSDPNKMQDVLFSAGIDVREEEALLNSSINASKSQVQTNNVKIPNHLPFLHPEQVSNYMRKVGKEQNFNLTPTKNPEILDMMSSACENYMRDILTNAIVISRHRRKAVKINSGRRSEVSAALRAIALIQKKEEERRVKKRIALGLEKEDYENKIDSEETLHRASNVTAGLRAGSKKQYGWLTSSVNKPTSLGAKSSGKVASDITARGESGLKFREAREEPGIVMRDLLFALENRRNSVQTIISKGYAKIRD
[1]
  binding: binds
[2]
  binding: binds

B6: Taf6, HA fusion (protein, UniProt P53040 1-516)
chain: MSTQQQSYTIWSPQDTVKDVAESLGLENINDDVLKALAMDVEYRILEIIEQAVKFKRHSKRDVLTTDDVSKALRVLNVEPLYGYYDGSEVNKAVSFSKVNTSGGQSVYYLDEEEVDFDRLINEPLPQVPRLPTFTTHWLAVEGVQPAIIQNPNLNDIRVSQPPFIRGAIVTALNDNSLQTPVTSTTASASVTDTGASQHLSNVKPGQNTEVKPLVKHVLSKELQIYFNKVISTLTAKSQADEAAQHMKQAALTSLRTDSGLHQLVPYFIQFIAEQITQNLSDLQLLTTILEMIYSLLSNTSIFLDPYIHSLMPSILTLLLAKKLGGSPKDDSPQEIHEFLERTNALRDFAASLLDYVLKKFPQAYKSLKPRVTRTLLKTFLDINRVFGTYYGCLKGVSVLEGESIRFFLGNLNNWARLVFNESGITLDNIEEHLNDDSNPTRTKFTKEETQILVDTVISALLVLKKDLPDLYEGKGEKVTDEDKEKLLERCGVTIGFHILKRDDAKELISAIFFGE
[1]
  binding: binds
[2]
  binding: binds
